Paper PMC10667839
Construct, isoform or probe ends are uncertain for at least one entry. At least one verdict rests on a figure or table, not on a statement of the authors.

Sequences of proteins named here, by UniProt entry; tags and fusion partners are left off.
UniProt O60264, whole entry: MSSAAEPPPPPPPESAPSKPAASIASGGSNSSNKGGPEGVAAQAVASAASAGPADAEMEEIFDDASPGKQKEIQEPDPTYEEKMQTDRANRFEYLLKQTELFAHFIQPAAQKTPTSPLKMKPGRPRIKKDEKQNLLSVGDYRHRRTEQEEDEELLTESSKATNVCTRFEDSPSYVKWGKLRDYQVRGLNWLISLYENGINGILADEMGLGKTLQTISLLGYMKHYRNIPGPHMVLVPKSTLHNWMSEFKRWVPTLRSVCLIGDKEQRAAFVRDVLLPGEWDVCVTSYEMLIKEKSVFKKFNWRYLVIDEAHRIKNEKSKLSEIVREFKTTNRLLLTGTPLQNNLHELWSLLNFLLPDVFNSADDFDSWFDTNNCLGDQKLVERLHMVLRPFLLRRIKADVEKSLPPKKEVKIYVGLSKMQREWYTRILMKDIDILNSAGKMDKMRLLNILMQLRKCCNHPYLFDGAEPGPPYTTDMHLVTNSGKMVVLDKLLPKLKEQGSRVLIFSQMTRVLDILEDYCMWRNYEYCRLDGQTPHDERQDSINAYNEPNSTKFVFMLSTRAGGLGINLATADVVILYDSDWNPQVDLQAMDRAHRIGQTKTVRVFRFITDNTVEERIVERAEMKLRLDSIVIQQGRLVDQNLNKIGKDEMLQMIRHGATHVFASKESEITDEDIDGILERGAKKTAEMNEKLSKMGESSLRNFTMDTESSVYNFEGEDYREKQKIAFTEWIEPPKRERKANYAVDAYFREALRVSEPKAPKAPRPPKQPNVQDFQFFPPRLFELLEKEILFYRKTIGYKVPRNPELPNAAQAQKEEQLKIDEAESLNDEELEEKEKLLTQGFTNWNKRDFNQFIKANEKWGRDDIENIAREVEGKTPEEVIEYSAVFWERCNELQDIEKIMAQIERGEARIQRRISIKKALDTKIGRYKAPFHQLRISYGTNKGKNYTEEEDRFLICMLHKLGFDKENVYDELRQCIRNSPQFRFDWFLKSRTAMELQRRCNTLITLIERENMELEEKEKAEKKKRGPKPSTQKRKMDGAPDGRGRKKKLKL

Biological target: SMARCA5 (UniProt O60264)
Experiment: EMSA
Conditions: 20 fmol probe, 1 ug protein; biotin (position not given); LightShift Chemiluminescent EMSA kit (Pierce), manufacturer's protocol; room temperature 20 min; native 8% PAGE; salt and pH not stated; recombinant protein; label: biotin

“CAGGCAAGAGGGAAAAGCAGGTGCAAAGGCCCTGAGGTGGGTGTATCTGAGGTGCAAGAG (double strand) [biotin DNA-probe (SMARCA5 target DNA)]”: binds.
